The values that follow come from PMC8195427.

No constants are given. Whether binding was seen depends on the method and setting. For some assays here: In cells and extracts the contact can be indirect. Some binding calls cover weakened binding; strength is not graded here. For some assays here: Tags and fused reporters may be left off the sequences shown.

The target in experiment [1] is T1, PHYTOCHROME … FACTOR 4 (PIF4), two-hybrid bait in pGBT9 (Arabidopsis thaliana) (UniProt Q8W2F3).
T1 sequence: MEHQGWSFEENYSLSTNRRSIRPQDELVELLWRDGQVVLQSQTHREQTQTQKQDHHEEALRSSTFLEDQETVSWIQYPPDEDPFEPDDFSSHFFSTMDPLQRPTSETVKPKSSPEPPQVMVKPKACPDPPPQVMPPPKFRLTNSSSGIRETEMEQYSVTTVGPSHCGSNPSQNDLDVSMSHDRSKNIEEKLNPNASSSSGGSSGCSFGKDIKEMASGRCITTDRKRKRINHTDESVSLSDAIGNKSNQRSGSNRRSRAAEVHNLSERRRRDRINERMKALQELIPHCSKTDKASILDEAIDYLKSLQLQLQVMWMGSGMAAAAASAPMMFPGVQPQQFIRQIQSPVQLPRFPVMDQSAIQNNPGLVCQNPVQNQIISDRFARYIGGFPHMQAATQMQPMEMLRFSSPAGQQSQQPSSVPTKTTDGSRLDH
Kind of experiment: two-hybrid; PIF4 as bait in pGBT9, HEC2 or mHEC2 as preys in pGADT7; yeast strain Y187, selected on -Leu, -Trp medium; beta-galactosidase assay.

The target of experiment [2] is T2, PIF4-myc (35S:PIF4-myc transgenic Arabidopsis) (Arabidopsis thaliana) (UniProt Q8W2F3).
T2 sequence: T1 sequence
Kind of experiment: co-IP; double transgenic Arabidopsis seedlings (35S:PIF4-myc crossed with 35S:HEC2-GFP or 35S:mHEC2-GFP), 50 seedlings a sample; precipitated with anti-myc and Dynabeads protein A; blots with anti-myc or anti-GFP.

B1: HECATE 2 (HEC2), wild type, two-hybrid prey in pGADT7 (protein, UniProt Q9SND4 1-231)
chain: MDNSDILMNMMMQQMEKLPEHFSNSNPNPNPHNIMMLSESNTHPFFFNPTHSHLPFDQTMPHHQPGLNFRYAPSPSSSLPEKRGGCSDNANMAAMREMIFRIAVMQPIHIDPESVKPPKRKNVRISKDPQSVAARHRRERISERIRILQRLVPGGTKMDTASMLDEAIHYVKFLKKQVQSLEEHAVVNGGGMTAVAGGALAGTVGGGYGGKGCGIMRSDHHQMLGNAQILR
For B1, the binding result in experiment [1] is given as “binds”.

B2: HEC2-GFP (35S:HEC2-GFP transgenic Arabidopsis) (protein, UniProt Q9SND4 1-231)
chain: B1 chain
Consider B2, for which the binding entry in experiment [2] was “binds”.
